Results taken from patent publication US11458138B2 (Novartis AG, priority 2017, dated 2022).

Key:
[1] = Residual compound estimation study, LSC washout (LC-MS); design: species or system human; settings: expanded LSCs; for compound concentration in the Cell Pellet / compound in the Cell Pellet (pg/cell): PostWash_Pellet, replicates 1-3, LC-MS; for Avg of compound (pg/cell) in the Cell Pellet: average of PostWash_Pellets 1-3
[2] = Residual compound estimation study, CEC washout (LC-MS); design: species or system human

Structure (SMILES) | compound concentration in the Cell Pellet [1] | compound in the Cell Pellet (pg/cell) [1] | Avg of compound (pg/cell) in the Cell Pellet [1] [pg/cell] | compound in the Cell Pellet (pg/cell) ([2]; PostWash_Pellet, replicates 1-3, LC-MS) | Avg of compound (pg/cell) in the Cell Pellet ([2]; average of PostWash_Pellets 1-3)
CC(C)(C)Nc1cc(-c2ccncc2)nc2cnccc12 [Example 261, N-(tert-butyl)-2-(pyridin-4-yl)-1,7-naphthyridin-4-amine] | 6.941 nM and 11.008 nM | 0.0000043 pg/cell and 0.000095 pg/cell and 0.00015 pg/cell | 0.000083 |  | 
C[C@H](N(C)c1nc(-c2ccncc2)nc2cnccc12)C(F)(F)F [Example 48a, N-methyl-2-(pyridin-4-yl)-N-[(2S)-1,1,1-trifluoropropan-2-yl]pyrido[3,4-d]pyrimidin-4-amine] |  |  |  | 0.13 × 10^−6 pg/cell and 2.3 × 10^−6 pg/cell and 2.1 × 10^−6 pg/cell | 1.5 × 10^−6 pg/cell
CC(C)(O)COCC(C)(C)Nc1nc(-c2ccncc2)nc2cnccc12 [Example 12, 2-methyl-1-(2-methyl-2-{[2-(pyridin-4-yl)pyrido[3,4-d]pyrimidin-4-yl]amino}propoxy)propan-2-ol] | 14.443 nM | 0.000136 pg/cell and 0.000264 pg/cell and 0.000134 pg/cell | 0.000178 |  | 
CC(C)N(C)c1nc(-c2ccncc2)nc2cnccc12 [Example 5, N-methyl-N-(propan-2-yl)-2-(pyridin-4-yl)pyrido[3,4-d]pyrimidin-4-amine] | 21.733 nM and 46.529 nM | 0.00061 pg/cell and 0.00038 pg/cell and 0.0015 pg/cell | 0.00083 |  | 

“And” between values parts separate entries of the source, which are not always exact repeats. Equal entries are not always repeated.
